Measured values as given in patent US20190010547A1, “MICRORNA-122 IN METABOLIC DISEASES” (Medizinische Universität Innsbruck, priority 2015, published 2019).

Settings: ASCOT participants, atorvastatin 10 mg/day vs placebo, baseline vs 1 year

Question: Which “low-density lipoprotein cholesterol (LDL-C)” value does the source give for CC(C)c1c(C(=O)Nc2ccccc2)c(-c2ccccc2)c(-c2ccc(F)cc2)n1CC[C@@H](O)C[C@@H](O)CC(=O)O [atorvastatin] here?
Answer: concordant reduction
